{"source": "PubChem BioAssay AID2417", "about": "(National Center for Advancing Translational Sciences (NCATS), 2010)", "note": "The campaign covered roughly 140,000 compounds. About 4,300 (3.1%) were called active. The inconclusive results got no clear call from the source; some entries with a clear call stand among them for comparison.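 How the source made its calls: active means readout at or below -70, meaning at least 70% loss of cells showing the perinucleolar compartment, a nuclear body marking cancer cells; inconclusive means readout between -30 and a set limit; inactive means the rest.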"}
{"experiment": "High Content Assay for Compounds that inhibit the Assembly of the Perinucleolar Compartment;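 further: plate controls were DMSO wells for no effect and camptothecin positive control wells for full effect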", "settings": "PC3M PTB-GFP, PNC prevalence imaging, 16 h; at 10 µM; active compounds read low", "procedure,_shortened": "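PC3M cells stably expressing PTB-GFP, 750–1000 cells/well, treated 16 h at 37 °C with compound (23 nl of library stock), in duplicate. After paraformaldehyde fixation and Hoechst stain, imaged at 20x; PNC prevalence scored by image analysis.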"}
{"smiles": "CCOC(=O)c1ccccc1NS(=O)(=O)c1ccc(S(=O)(=O)N2CCCC2)cc1", "activity change (PNC), negative = inhibition": "inconclusive: -40.2%"}
{"smiles": "COc1cc(C(=O)Nc2ccccc2-c2nnn(CC(N)=O)n2)cc(OC)c1OC", "activity change (PNC), negative = inhibition": "inconclusive: -37.1%"}
{"smiles": "O=C(c1n[nH]c(=O)c2ccccc12)N1CCN(c2ccccc2)CC1", "activity change (PNC), negative = inhibition": "inconclusive: -41.7%"}
{"smiles": "O=C(CCC(=O)c1ccc(F)cc1)Nc1ccccc1Cl", "activity change (PNC), negative = inhibition": "inactive: 11.3%"}
{"smiles": "CCn1cc(-c2cc(C(F)(F)F)n3nc(C(=O)O)cc3n2)c(C)n1", "activity change (PNC), negative = inhibition": "inconclusive: -49.2%"}
{"smiles": "CC(C)Cn1c(SCC(=O)NC2CCCc3ccccc32)nc(O)cc1=O", "note": "(stereo not given)", "activity change (PNC), negative = inhibition": "inconclusive: -31.9%"}
{"smiles": "COc1cccc(C2C(C#N)=C(C)NC3=C2C(=O)CC(C)(C)C3)c1", "note": "(stereo not given)", "activity change (PNC), negative = inhibition": "inconclusive: -31.1%"}
{"smiles": "CCn1c2ccccc2c2cc(NC(=O)COc3ccc(OC)cc3)ccc21", "activity change (PNC), negative = inhibition": "inactive: -10.3%"}
{"smiles": "CCOC(=O)c1c(NC(=O)c2cccs2)sc(C)c1C", "activity change (PNC), negative = inhibition": "inconclusive: -64.2%"}
{"smiles": "Cc1ccc2c(c1)NC(=O)CC(c1ccccc1)=N2", "activity change (PNC), negative = inhibition": "inconclusive: -41.3%"}
{"smiles": "c1ccc(-n2ncc3c(N4CCN(CCOc5cccc6ccccc56)CC4)ncnc32)cc1", "activity change (PNC), negative = inhibition": "inactive: 50%"}
{"smiles": "O=C(O)CCCCCCCCCC(=O)c1cccs1", "activity change (PNC), negative = inhibition": "inactive: -5.44%"}
{"smiles": "Cc1ccsc1C1Nc2ccc3ncccc3c2C2=C1C(=O)CC(C)(C)C2", "note": "(stereo not given)", "activity change (PNC), negative = inhibition": "inconclusive: -55.6%"}
{"smiles": "Cc1cccc(C(=O)NNC(=O)c2ccco2)c1", "activity change (PNC), negative = inhibition": "inconclusive: -60.9%"}
{"smiles": "COc1ccc2[nH]c(-c3ccc(C)cc3)cc(=O)c2c1", "activity change (PNC), negative = inhibition": "inactive: 36.8%"}
{"smiles": "COc1cccc(/C=C2/SC(=S)N(CC(=O)Nc3nnc(C)s3)C2=O)c1", "activity change (PNC), negative = inhibition": "inactive: 68.2%"}
{"smiles": "CC(C(=O)Nc1ccc(N2CCOCC2)cc1)N1C(=O)c2ccccc2C1=O", "note": "(stereo not given)", "activity change (PNC), negative = inhibition": "inconclusive: -66.4%"}
{"smiles": "COCCNC(=O)C(C)Oc1ccc(Cl)cc1Cl", "note": "(stereo not given)", "activity change (PNC), negative = inhibition": "inactive: 40.2%"}
{"smiles": "COc1ccc(OC)c(NC(=O)CSc2nnc(CCCO)n2-c2ccccc2)c1", "activity change (PNC), negative = inhibition": "inconclusive: -31.3%"}
{"smiles": "CCN(CC)S(=O)(=O)c1cccc(C(=O)NC(Cc2c[nH]c3ccccc23)c2nnc3n2CCC3)c1", "note": "(stereo not given)", "activity change (PNC), negative = inhibition": "inconclusive: -63.2%"}
{"smiles": "Cc1ccccc1Nc1nc(N)nc(CSc2nnc(-c3ccccc3)n2C)n1", "activity change (PNC), negative = inhibition": "inconclusive: -34.1%"}
{"smiles": "COc1ccc2[nH]c(=O)c(CN(CCCN(C)C)C(=O)Nc3ccc(F)cc3)cc2c1", "activity change (PNC), negative = inhibition": "inconclusive: -41.2%"}
{"smiles": "NCCCS(=O)(=O)O", "activity change (PNC), negative = inhibition": "inactive: 8.15%"}
{"smiles": "COc1ccc(Oc2ccccc2/C=C/C(=O)O)cc1", "activity change (PNC), negative = inhibition": "inconclusive: -46.8%"}
{"smiles": "CCCCC(=O)Nc1nn(CCC)c2nc3ccccc3cc12", "activity change (PNC), negative = inhibition": "inconclusive: -50.2%"}
{"smiles": "N#CC1=C2SCC(O)(c3ccccc3)N2C(=O)CC1c1cccs1", "note": "(stereo not given)", "activity change (PNC), negative = inhibition": "active: -88.6%"}
{"smiles": "Cc1nnc(SCc2ccccc2C#N)n1-c1ccccc1", "activity change (PNC), negative = inhibition": "inconclusive: -35.7%"}
{"smiles": "CCOC(=O)C1=C(C)N(c2ccc(Cl)cc2)C(=O)NC1c1cccc([N+](=O)[O-])c1", "note": "(stereo not given)", "activity change (PNC), negative = inhibition": "inconclusive: -69.4%"}
{"smiles": "Cc1nnc(SCC(=O)NN2C(=O)NC3(CCCCC3)C2=O)s1", "activity change (PNC), negative = inhibition": "inconclusive: -34.6%"}
{"smiles": "CN1C(=O)C(C(=O)NC(C)(C)C)C2c3ccccc3OC13CCCCC23", "note": "(stereo not given)", "activity change (PNC), negative = inhibition": "inconclusive: -51%"}
{"smiles": "CCc1ccc2nc(SCC(=O)N3CC(=O)Nc4ccccc43)c(C#N)cc2c1", "activity change (PNC), negative = inhibition": "inconclusive: -64.2%"}
{"smiles": "C=CCn1c(C)c(C(C)=O)c(N2CCCC2)nc1=S", "activity change (PNC), negative = inhibition": "inconclusive: -36.7%"}
{"smiles": "O=c1c2cnn(-c3ccccc3)c2nnn1Cc1ccccn1", "activity change (PNC), negative = inhibition": "inconclusive: -45.9%"}
{"smiles": "CCn1c(C(c2ccccc2)c2ccccc2)n[nH]c1=S", "activity change (PNC), negative = inhibition": "inactive: -23%"}
{"smiles": "CCCCCSc1nncc(=O)[nH]1", "activity change (PNC), negative = inhibition": "inconclusive: -56.6%"}
{"smiles": "Cc1ccc(S(=O)(=O)N2CCN(C(=O)CSc3nc4ccccc4c(=O)[nH]3)CC2)c(C)c1", "activity change (PNC), negative = inhibition": "inconclusive: -52.1%"}
{"smiles": "O=C(NCCN1CCOCC1)c1ccc(CS(=O)(=O)Cc2ccccc2F)o1", "activity change (PNC), negative = inhibition": "inactive: 26.5%"}
{"smiles": "O=C(NCCC1=CCCCC1)C1CCN(S(=O)(=O)N2CCOCC2)CC1", "activity change (PNC), negative = inhibition": "inconclusive: -41.1%"}
{"smiles": "CC(C)(C)c1ccc(/C=C/C(=O)N2CCN(c3ncccn3)CC2)cc1", "activity change (PNC), negative = inhibition": "inconclusive: -60.7%"}
{"smiles": "CCC(=O)c1ccc(OCc2ccc(C(=O)OC)o2)c(OC)c1", "activity change (PNC), negative = inhibition": "inconclusive: -31.5%"}
{"smiles": "COc1ccc(-c2nc(C#N)c(NCc3ccc(F)cc3)o2)cc1OC", "activity change (PNC), negative = inhibition": "inconclusive: -30.3%"}
{"smiles": "CCOC(=O)C1CCN(C(=O)N2CCOCC2)CC1", "activity change (PNC), negative = inhibition": "inconclusive: -35.3%"}
{"smiles": "Cc1cc(C(=O)NNC(=S)NCC2CCCO2)cs1", "note": "(stereo not given)", "activity change (PNC), negative = inhibition": "inconclusive: -32.2%"}
{"smiles": "CCOc1ccc(N2CC(C(=O)OCC(=O)NCc3ccccc3)CC2=O)cc1", "note": "(stereo not given)", "activity change (PNC), negative = inhibition": "inactive: -11.4%"}
{"smiles": "CCN(CC)S(=O)(=O)c1ccc(OC)c(NC(=O)CSc2cc(Cl)ccc2Cl)c1", "activity change (PNC), negative = inhibition": "inconclusive: -42%"}
